Our source for the NP40-soluble protein abundance values is the supplement of paper PMC6411743.

Protein sequences, listed by entry. Tags and fused reporters are not part of them. Lines headed by an entry give the natural chain unless they say otherwise; changes in a name come on top.
UniProt O43913: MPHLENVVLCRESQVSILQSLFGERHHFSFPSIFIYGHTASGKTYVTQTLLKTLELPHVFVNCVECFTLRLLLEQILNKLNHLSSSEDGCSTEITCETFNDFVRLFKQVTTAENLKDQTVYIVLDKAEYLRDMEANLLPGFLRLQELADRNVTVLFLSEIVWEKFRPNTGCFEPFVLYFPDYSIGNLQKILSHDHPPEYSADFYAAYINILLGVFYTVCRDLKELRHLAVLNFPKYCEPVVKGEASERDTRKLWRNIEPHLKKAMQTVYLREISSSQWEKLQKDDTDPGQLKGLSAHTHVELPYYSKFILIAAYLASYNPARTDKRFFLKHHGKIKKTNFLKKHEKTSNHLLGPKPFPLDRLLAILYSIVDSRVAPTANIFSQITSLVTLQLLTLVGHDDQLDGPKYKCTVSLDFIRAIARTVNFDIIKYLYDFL
UniProt O43143: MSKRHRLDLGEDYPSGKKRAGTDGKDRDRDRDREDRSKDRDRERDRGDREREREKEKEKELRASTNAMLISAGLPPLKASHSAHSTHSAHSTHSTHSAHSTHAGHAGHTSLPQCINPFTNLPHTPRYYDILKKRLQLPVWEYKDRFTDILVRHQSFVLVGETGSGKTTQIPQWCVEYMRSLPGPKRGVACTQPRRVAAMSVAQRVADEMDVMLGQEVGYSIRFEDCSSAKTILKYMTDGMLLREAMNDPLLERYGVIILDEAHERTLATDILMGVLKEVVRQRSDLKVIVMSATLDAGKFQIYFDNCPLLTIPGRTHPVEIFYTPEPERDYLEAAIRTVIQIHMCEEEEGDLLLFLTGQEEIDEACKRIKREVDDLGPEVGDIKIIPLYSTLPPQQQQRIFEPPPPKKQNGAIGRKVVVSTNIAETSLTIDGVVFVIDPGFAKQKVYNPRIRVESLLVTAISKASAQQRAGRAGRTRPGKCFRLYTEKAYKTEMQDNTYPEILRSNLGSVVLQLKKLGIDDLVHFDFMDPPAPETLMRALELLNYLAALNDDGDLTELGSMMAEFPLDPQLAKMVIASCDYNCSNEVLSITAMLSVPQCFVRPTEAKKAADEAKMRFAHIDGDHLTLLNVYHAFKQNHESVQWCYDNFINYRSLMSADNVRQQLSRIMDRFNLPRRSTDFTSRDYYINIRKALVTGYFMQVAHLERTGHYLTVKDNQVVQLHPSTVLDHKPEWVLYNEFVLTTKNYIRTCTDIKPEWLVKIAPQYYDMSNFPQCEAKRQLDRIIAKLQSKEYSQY
UniProt O60318: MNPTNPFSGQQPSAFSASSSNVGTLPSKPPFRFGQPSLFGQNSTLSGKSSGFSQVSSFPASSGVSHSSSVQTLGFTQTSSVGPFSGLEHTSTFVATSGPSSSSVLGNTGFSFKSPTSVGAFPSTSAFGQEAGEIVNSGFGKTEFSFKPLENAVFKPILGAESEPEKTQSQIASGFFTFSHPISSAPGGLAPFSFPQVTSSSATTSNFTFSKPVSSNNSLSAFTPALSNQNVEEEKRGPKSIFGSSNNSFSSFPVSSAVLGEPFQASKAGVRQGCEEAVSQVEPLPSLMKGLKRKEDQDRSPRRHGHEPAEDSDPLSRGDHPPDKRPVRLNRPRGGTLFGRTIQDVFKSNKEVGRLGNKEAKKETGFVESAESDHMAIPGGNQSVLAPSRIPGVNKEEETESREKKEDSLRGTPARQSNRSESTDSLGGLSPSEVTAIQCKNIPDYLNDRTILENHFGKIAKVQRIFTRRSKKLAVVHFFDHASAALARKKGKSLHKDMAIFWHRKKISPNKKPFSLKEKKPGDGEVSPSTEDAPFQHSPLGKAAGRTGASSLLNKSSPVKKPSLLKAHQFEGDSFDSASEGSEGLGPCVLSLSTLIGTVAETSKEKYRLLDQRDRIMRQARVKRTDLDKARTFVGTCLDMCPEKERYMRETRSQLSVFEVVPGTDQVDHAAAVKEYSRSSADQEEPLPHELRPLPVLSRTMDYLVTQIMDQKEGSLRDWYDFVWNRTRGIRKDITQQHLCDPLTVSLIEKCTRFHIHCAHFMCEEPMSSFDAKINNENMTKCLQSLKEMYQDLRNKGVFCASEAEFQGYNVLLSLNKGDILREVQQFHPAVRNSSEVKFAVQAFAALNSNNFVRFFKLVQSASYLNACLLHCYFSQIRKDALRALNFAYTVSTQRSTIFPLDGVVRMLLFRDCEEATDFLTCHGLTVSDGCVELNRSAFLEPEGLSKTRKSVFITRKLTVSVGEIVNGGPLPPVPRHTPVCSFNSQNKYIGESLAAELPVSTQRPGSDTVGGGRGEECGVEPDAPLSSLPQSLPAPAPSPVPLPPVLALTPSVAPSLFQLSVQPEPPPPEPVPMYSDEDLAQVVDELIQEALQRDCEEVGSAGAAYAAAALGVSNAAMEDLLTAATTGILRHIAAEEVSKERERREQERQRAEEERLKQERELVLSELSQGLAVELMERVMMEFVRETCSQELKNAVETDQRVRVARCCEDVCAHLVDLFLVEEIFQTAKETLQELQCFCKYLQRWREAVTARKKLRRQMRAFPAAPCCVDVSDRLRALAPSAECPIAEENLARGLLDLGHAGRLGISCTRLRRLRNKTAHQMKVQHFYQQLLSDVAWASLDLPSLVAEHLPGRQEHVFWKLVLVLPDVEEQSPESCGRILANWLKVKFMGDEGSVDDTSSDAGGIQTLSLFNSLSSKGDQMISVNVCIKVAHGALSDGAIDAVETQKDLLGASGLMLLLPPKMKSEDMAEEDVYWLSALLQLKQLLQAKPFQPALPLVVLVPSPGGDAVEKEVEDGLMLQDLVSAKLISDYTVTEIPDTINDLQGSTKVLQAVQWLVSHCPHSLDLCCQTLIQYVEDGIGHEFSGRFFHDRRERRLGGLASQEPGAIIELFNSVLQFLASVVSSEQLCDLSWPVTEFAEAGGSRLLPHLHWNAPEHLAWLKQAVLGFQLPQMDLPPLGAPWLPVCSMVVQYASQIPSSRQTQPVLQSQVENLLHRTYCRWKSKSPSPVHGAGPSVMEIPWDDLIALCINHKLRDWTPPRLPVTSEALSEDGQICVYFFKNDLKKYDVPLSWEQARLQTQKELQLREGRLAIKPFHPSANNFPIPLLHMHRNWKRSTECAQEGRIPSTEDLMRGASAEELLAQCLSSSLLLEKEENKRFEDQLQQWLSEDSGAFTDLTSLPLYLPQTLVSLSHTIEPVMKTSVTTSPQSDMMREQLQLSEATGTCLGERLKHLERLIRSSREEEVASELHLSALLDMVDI
UniProt O15446, whole entry: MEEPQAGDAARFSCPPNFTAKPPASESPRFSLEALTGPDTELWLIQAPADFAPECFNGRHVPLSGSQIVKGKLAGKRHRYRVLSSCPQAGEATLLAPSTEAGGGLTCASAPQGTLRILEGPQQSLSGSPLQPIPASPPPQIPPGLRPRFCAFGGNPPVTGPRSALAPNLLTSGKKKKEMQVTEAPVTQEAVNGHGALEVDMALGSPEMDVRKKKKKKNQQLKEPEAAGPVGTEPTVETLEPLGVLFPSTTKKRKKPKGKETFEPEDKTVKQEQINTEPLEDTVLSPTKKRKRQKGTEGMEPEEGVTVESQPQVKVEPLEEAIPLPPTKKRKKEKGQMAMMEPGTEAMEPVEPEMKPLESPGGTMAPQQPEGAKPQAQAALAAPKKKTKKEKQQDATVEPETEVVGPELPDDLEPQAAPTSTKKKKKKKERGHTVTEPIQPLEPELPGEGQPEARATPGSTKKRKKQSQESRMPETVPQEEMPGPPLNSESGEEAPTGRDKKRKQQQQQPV
UniProt O43164: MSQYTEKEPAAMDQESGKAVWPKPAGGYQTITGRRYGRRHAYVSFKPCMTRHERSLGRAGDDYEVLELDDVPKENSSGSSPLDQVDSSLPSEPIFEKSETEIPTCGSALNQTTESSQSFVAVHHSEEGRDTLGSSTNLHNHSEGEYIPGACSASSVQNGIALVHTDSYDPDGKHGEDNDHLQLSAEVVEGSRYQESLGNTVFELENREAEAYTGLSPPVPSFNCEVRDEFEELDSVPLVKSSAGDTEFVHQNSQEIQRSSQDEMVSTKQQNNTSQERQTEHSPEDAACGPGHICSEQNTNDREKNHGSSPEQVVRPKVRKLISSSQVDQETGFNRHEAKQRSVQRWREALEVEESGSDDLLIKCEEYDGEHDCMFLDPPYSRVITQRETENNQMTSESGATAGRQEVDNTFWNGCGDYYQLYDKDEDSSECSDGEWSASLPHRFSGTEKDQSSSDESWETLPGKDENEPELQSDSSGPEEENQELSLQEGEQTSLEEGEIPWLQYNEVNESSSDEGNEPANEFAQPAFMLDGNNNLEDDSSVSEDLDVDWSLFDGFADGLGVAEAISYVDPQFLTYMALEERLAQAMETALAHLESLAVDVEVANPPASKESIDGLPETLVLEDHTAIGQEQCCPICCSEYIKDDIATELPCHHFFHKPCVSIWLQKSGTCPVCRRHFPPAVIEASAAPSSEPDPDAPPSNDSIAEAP

Compound in the test: Nc1nc2c(ncn2[C@@H]2O[C@H](COP(=O)(O)OP(=O)(O)OP(=O)(O)O)[C@@H](O)[C@H]2O)c(=O)[nH]1 [guanosine triphosphate]
The test is described as follows: NP40-soluble protein abundance relative to vehicle (solubility fold change) (ratio); higher = more soluble protein in presence of GTP. The protocol:
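Solubility proteome profiling in Jurkat crude lysate. Lysate was treated with Mg-GTP (0.1-10 mM) for 10 min at room temperature and 3 min at 37 °C, then solubilised with 0.8% NP40 and benzonase, followed by ultracentrifugation. Proteins were quantified by TMT10 LC-MS/MS; the value is the NP40-soluble abundance relative to the NP40-processed vehicle, from 3 independent experiments.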

± gives the standard deviation of the averaged measurements. This is one part of the list.

For the target UniProt O43913 and related entries, the NP40-soluble protein abundance (concentration: 0.1mM) came out at 1.07 ± 0.04; the NP40-soluble protein abundance (concentration: 0.5mM) is 1.12 ± 0.079; the NP40-soluble protein abundance (concentration: 1mM) was 0.993 ± 0.075; the NP40-soluble protein abundance (concentration: 2mM) came to 1 ± 0.078; the NP40-soluble protein abundance (concentration: 4mM) turned out to be 1.01 ± 0.06; the NP40-soluble protein abundance (concentration: 6mM) amounted to 0.982 ± 0.013. Moreover, the NP40-soluble protein abundance reads like this: (concentration: 8mM) 1 ± 0.038; (concentration: 10mM) 1.01 ± 0.074.
Take DHX15 (UniProt O43143): the NP40-soluble protein abundance by setting is: (concentration: 0.1mM) 1.12 ± 0.089; (concentration: 0.5mM) 1.23 ± 0.13; (concentration: 1mM) 1.16 ± 0.092; (concentration: 2mM) 1.2 ± 0.14; (concentration: 4mM) 1.22 ± 0.12; (concentration: 6mM) 1.23 ± 0.11. The NP40-soluble protein abundance by setting is: (concentration: 8mM) 1.19 ± 0.071; (concentration: 10mM) 1.17 ± 0.075.
With MCM3AP (UniProt O60318), the NP40-soluble protein abundance is, setting by setting: (concentration: 0.1mM) 0.949 ± 0.13; (concentration: 0.5mM) 0.98 ± 0.17; (concentration: 1mM) 1.06 ± 0.025; (concentration: 2mM) 1.14 ± 0.1; (concentration: 4mM) 1.191 ± 0.011; (concentration: 6mM) 1.14 ± 0.062. Moreover, the NP40-soluble protein abundance by setting is: (concentration: 8mM) 1.31 ± 0.075; (concentration: 10mM) 1.25 ± 0.051.
With UniProt O15446 and related entries, the NP40-soluble protein abundance was 1.05 ± 0.012 (concentration: 0.1mM); 1.04 ± 0.047 (concentration: 0.5mM); 1.16 ± 0.046 (concentration: 1mM); 1.17 ± 0.098 (concentration: 2mM); 1.22 ± 0.071 (concentration: 4mM); 1.31 ± 0.071 (concentration: 6mM). The NP40-soluble protein abundance is 1.43 ± 0.022 (concentration: 8mM) and 1.49 ± 0.1 (concentration: 10mM).
Take UniProt O43164 and related entries: the NP40-soluble protein abundance was 1.01 ± 0.032 (concentration: 0.1mM); 0.981 ± 0.039 (concentration: 0.5mM); 0.998 ± 0.061 (concentration: 1mM); 0.993 ± 0.053 (concentration: 2mM); 0.958 ± 0.029 (concentration: 4mM); 0.943 ± 0.041 (concentration: 6mM). In addition, the NP40-soluble protein abundance is, setting by setting: (concentration: 8mM) 0.97 ± 0.053; (concentration: 10mM) 0.972 ± 0.026.
